In PMC8889267:
Results are given in words; binding and its absence hold for the method and conditions named. In cells and extracts the contact can be indirect. A yes stands for co-enrichment or nearness to the bait. Other partners may have been found. No binding means not detected with the bait.

The chains behind the UniProt entries cited, without tags or fusion partners. Residues count along the entry.
UniProt Q9FIH8, residues 144-1265: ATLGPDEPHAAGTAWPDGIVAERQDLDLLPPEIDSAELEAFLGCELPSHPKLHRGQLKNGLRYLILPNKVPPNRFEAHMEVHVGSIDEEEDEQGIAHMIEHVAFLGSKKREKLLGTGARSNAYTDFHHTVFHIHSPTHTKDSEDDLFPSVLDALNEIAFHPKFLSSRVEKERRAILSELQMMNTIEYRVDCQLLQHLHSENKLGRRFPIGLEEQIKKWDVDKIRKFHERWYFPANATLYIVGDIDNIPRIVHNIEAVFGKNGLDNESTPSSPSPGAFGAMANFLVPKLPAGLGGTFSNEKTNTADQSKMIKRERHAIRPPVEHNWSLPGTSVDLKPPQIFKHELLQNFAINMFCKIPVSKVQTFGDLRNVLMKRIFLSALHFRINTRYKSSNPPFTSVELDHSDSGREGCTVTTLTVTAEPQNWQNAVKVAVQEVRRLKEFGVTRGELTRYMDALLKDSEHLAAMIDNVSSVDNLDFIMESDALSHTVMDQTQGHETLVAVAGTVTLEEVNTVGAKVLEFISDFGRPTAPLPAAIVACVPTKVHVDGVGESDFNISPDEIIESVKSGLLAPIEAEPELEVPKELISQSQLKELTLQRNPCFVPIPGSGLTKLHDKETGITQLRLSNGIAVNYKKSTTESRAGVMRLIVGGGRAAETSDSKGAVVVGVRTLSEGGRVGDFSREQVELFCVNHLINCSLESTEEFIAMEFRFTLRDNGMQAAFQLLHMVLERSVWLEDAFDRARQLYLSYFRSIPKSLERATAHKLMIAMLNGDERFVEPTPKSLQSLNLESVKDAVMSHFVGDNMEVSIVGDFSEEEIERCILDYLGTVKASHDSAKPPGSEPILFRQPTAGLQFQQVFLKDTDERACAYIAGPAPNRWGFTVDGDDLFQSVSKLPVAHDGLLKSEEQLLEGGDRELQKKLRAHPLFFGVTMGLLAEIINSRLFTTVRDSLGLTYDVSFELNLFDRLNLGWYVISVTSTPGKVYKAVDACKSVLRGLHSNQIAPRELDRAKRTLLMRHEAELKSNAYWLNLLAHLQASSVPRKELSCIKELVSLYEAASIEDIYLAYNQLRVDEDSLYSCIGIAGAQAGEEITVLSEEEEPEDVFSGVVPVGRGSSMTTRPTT

T1: CLPC1-TRAP-STREPII (Arabidopsis thaliana) (UniProt Q9FI56)
T1 sequence: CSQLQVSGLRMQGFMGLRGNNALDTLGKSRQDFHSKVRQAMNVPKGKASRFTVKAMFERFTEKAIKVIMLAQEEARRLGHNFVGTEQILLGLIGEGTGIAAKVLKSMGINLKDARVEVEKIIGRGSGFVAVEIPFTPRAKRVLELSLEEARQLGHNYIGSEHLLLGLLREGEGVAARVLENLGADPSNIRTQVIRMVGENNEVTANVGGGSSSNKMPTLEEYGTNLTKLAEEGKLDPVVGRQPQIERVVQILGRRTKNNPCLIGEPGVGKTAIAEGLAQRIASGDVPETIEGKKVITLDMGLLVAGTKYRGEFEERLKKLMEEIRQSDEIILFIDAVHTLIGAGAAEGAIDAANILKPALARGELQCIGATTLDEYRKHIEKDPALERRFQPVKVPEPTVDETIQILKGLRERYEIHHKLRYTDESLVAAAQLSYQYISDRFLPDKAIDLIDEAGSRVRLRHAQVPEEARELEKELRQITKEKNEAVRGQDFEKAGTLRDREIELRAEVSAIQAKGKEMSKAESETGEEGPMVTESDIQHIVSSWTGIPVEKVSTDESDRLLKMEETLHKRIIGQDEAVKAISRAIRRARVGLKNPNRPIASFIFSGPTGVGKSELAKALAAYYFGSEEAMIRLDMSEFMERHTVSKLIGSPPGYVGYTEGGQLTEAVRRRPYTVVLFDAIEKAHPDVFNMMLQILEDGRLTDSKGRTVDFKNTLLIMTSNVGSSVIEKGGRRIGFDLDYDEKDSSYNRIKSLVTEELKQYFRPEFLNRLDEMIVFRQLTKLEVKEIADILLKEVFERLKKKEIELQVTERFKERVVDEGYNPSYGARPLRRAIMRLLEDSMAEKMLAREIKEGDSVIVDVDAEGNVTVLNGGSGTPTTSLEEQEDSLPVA

B1: rpoB RNA polymerase (PEP) beta (protein, UniProt P50546 1-1072)
chain: MLGDEKEGTSAIPGFNQIQFEGFYRFIDQGLIEELAKFPKIEDIDHEIEFQLFVETYQLVEPLIKERDAVYESLTYSSELYVSAGLIWKTSRNMQEQRIFIGNIPLMNSLGTSIVNGIYRIVINQILQSPGIYYQSELDHNGISVYTGTIISDWGGRLELEIDKKARIWARVSRKQKISILVLSSAMGLNLREILENVCYPEIFLSFLTDKEKKKIGSKENAILEFYQQFSCVGGDPIFSESLCKELQKKFFHQRCELGRIGRRNINWRLNLNIPQNNIFLLPRDVLAAADHLIGMKFGMGTLDDMNHLKNKRIRSVADLLQDQLGLALARLENVVKGTISGAIRHKLIPTPQNLVTSTPLTTTYESFFGLHPLSQVLDRTNPLTQIVHGRKLSYLGPGGLTGRTANFRIRDIHPSHYGRICPIDTSEGINVGLIGSLSIHARIGDWGSLESPFYELFEKSKKARIRMLFLSPSQDEYYMIAAGNSLALNRGIQEEQAVPARYRQEFLTIAWEEVHLRSIFPFQYFSIGASLIPFIEHNDANRALMSSNMQRQAVPLSRSEKCIVGTGLERQVALDSGVPAIAEHEGKILYTDTEKIVFSGNGDTLSIPLIMYQRSNKNTCMHQKPQVRRGKCIKKGQILADGAATVGGELALGKNILVAYMPWEGYNFEDAVLISECLVYGDIYTSFHIRKYEIQTHVTTQGPERITKEIPHLEGRLLRNLDKNGIVMLGSWVETGDILVGKLTPQVAKESSYAPEDRLLRAILGIQVSTSKETCLKLPIGGRGRVIDVRWVQKKGGSSYNPEIIRVYISQKREIKVGDKVAGRHGNKGIISKILPRQDMPYLQDGRPVDMVFNPLGVPSRMNVGQIFECSLGLAGSLLDRHYRIAPFDERYEQEASRKLVFSELYEASKQTANPWVFEPEYPGKSRIFDGRTGDPFEQPVIIGKPYILKLIHQVDDKIHGRSSGHYALVTQQPLRGRSKQGGQRVGEMEVWALEGFGVAHILQEMLTYKSDHIRARQEVLGTTIIGGTIPKPEDAPESFRLLVRELRSLALELNHFLVSEKNFQINRKEV
B2: DNA primase-helicase (dual chloro-mito) (protein, UniProt B5X582 82-709)
chain: SSYNSIPRVPTPVDTEVEADKRVVLSRLVTLRRKLAEQGVDAENCPPGQHSGLICPTCEGGNSGEKSLSLFIAPDGSSATWNCFRGKCGLKGGVRADGGLASADPIEKVERKITVEGIELEPLCDEIQDYFAARAISRKTLERNRVMQKRIGDEIVIAFTYWQRGELVSCKYRSLTKMFFQERKTRRILYGLDDIEKTSEVIIVEGEIDKLAMEEAGFLNCVSVPDGAPAKVSSKEIPSEDKDTKYKFLWNCNDYLKKASRIVIATDGDGPGQAMAEEIARRLGKERCWRVKWPKKSEDEHFKDANEVLMSKGPHLLKEAILDAEPYPILGLFSFKDFFDEIDAYYDRTHGHEYGVSTGWKNLDNLYSVVPGELTVVTGIPNSGKSEWIDAMLCNLNHSVGWKFALCSMENKVRDHARKLLEKHIKKPFFDADYGRSVQRMSVEEKDEGKKWLNDTFYPIRCEMDSLPSIDWVLERAKAAVLRYGIRGLVIDPYNELDHQRTPRQTETEYVSQMLTKIKRFSQHHSCHVWFVAHPKQLQHWDGGAPNLYDISGSAHFINKCDNGIIVHRNRDENAGPLDLVQIGVRKVRNKVAGQIGDAYLCYDRTTGSYSDSPVTPGMPERRSPKRY
B3: DEAD/DEAH box helicase (AT3G02060.1) (protein, UniProt F4JFJ3 54-823)
chain: ATAAKPTRWREKPELAESDSISLLNERIRRDLGKRETARPAMDSEEAEKYIHMVKEQQERGLQKLKGIRQGTKAAGDGAFSYKVDPYSLLSGDYVVHKKVGIGRFVGIKFDVPKDSSEPLEYVFIEYADGMAKLPLKQASRLLYRYNLPNETKRPRTLSRLSDTSVWERRKTKGKVAIQKMVVDLMELYLHRLRQKRYPYPKNPIMADFAAQFPYNATPDQKQAFLDVEKDLTERETPMDRLICGDVGFGKTEVALRAIFCVVSTGKQAMVLAPTIVLAKQHYDVISERFSLYPHIKVGLLSRFQTKAEKEEYLEMIKTGHLNIIVGTHSLLGSRVVYSNLGLLVVDEEQRFGVKQKEKIASFKTSVDVLTLSATPIPRTLYLALTGFRDASLISTPPPERIPIKTHLSSFRKEKVIEAIKNELDRGGQVFYVLPRIKGLEEVMDFLEEAFPDIDIAMAHGKQYSKQLEETMERFAQGKIKILICTNIVESGLDIQNANTIIIQDVQQFGLAQLYQLRGRVGRADKEAHAYLFYPDKSLLSDQALERLSALEECRELGQGFQLAEKDMGIRGFGTIFGEQQTGDVGNVGIDLFFEMLFESLSKVEELRIFSVPYDLVKIDININPRLPSEYVNYLENPMEIIHEAEKAAEKDMWSLMQFTENLRRQYGKEPYSMEIILKKLYVRRMAADLGVNRIYASGKMVVMKTNMSKKVFKLITDSMTCDVYRSSLIYEGDQIMAELLLELPREQLLNWMFQCLSELHASLPALIKY
B4: pentatricopeptide (PPR) repeat (pTAC2) (protein, UniProt Q9S7Q2 67-862)
chain: VEKGKYSYDVESLINKLSSLPPRGSIARCLDIFKNKLSLNDFALVFKEFAGRGDWQRSLRLFKYMQRQIWCKPNEHIYTIMISLLGREGLLDKCLEVFDEMPSQGVSRSVFSYTALINAYGRNGRYETSLELLDRMKNEKISPSILTYNTVINACARGGLDWEGLLGLFAEMRHEGIQPDIVTYNTLLSACAIRGLGDEAEMVFRTMNDGGIVPDLTTYSHLVETFGKLRRLEKVCDLLGEMASGGSLPDITSYNVLLEAYAKSGSIKEAMGVFHQMQAAGCTPNANTYSVLLNLFGQSGRYDDVRQLFLEMKSSNTDPDAATYNILIEVFGEGGYFKEVVTLFHDMVEENIEPDMETYEGIIFACGKGGLHEDARKILQYMTANDIVPSSKAYTGVIEAFGQAALYEEALVAFNTMHEVGSNPSIETFHSLLYSFARGGLVKESEAILSRLVDSGIPRNRDTFNAQIEAYKQGGKFEEAVKTYVDMEKSRCDPDERTLEAVLSVYSFARLVDECREQFEEMKASDILPSIMCYCMMLAVYGKTERWDDVNELLEEMLSNRVSNIHQVIGQMIKGDYDDDSNWQIVEYVLDKLNSEGCGLGIRFYNALLDALWWLGQKERAARVLNEATKRGLFPELFRKNKLVWSVDVHRMSEGGMYTALSVWLNDINDMLLKGDLPQLAVVVSVRGQLEKSSAARESPIAKAAFSFLQDHVSSSFSFTGWNGGRIMCQRSQLKQLLSTKEPTSEESENKNLVALANSPIFAAGTRASTSSDTNHSGNPTQRRTRTKKELAGSTA

Each molecule was assayed against T1, CLPC1-TRAP-STREPII (Arabidopsis thaliana) (assay: affinity purification with mass spectrometry; STREPII-tagged CLPC1-WT or CLPC1-TRAP from soluble leaf proteome of transgenic Arabidopsis rosettes, nondenaturing; StrepTactinXT beads, 50 mM Hepes-KOH pH 8.0, 15% glycerol, 10 mM MgCl2, 75 mM NaCl, eluted with 2.5 mM biotin; SDS-PAGE, in-gel trypsin digest, LC-MS/MS, spectral counting; three biological replicates; CGEP-STREP eluates as negative control).

binding | Molecule
binds | tRNA/rRNA methyltransferase (AT2G39670.1)
binds | Executer 2 (EXE2)
binds | PYRP2-related Haloacid dehalogenase (HAD) hydrolase
binds | DUF179–3
binds | armadillo repeat protein (ARM)
binds | LON-like3
binds | SAP domain–containing protein (pTAC3)
binds | HugZ-3
binds weakly | DUF3143
no binding | UVR1
binds weakly | DUF760–1
binds | DUF760-7 (clade 2)
binds | DUF760-5 (clade 3)
binds | stromal processing peptidase (SPP) (from UniProt Q9FIH8 144-1265)
binds | DUF760–2
no binding | DUF179-2
binds | DUF760-3 (clade 2)
binds | pigment defective 327 (PDE327) - oxidoreductase
binds | Executer 1 (EXE1)
binds | HugZ-1
binds | DNA-directed topoisomerase—dually targeted mitochondria & plastid
binds | LON-like1
binds | LON-domain protein 2 (LON-like2)
binds | DUF179-1
binds | DUF760–4
binds | B1
binds | B2
binds | B3
binds | B4
